Experimental data as given in publication PMC7041726.
No constants are given. Whether binding was seen depends on the method and setting. In cells and extracts the contact can be indirect. Some results given as binding are weak or reduced against the parent protein; the word gives no strength.

Chains of the proteins cited; added tags and fusions are not shown. Lines headed by an entry give the natural chain unless they say otherwise; changes in a name come on top.
UniProt P35222: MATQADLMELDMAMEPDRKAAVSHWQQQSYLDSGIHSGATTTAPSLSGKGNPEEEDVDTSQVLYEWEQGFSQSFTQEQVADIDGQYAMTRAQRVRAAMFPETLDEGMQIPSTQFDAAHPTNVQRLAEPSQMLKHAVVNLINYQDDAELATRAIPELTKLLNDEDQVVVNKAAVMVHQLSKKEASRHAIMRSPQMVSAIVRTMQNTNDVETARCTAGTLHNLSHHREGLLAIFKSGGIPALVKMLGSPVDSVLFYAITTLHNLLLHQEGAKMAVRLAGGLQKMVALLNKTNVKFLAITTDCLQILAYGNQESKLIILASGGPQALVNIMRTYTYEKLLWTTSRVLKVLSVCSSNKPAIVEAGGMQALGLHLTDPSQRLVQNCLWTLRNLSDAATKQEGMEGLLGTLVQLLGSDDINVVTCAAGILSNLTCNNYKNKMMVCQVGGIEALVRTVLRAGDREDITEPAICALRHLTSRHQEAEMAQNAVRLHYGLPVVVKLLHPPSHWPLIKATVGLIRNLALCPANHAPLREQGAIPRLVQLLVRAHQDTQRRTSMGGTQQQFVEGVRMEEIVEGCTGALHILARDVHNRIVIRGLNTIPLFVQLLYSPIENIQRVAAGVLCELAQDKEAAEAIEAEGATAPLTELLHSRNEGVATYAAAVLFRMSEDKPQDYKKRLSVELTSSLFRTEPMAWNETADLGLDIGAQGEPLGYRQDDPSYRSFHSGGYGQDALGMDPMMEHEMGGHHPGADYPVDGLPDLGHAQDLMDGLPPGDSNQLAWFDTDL
UniProt P61081: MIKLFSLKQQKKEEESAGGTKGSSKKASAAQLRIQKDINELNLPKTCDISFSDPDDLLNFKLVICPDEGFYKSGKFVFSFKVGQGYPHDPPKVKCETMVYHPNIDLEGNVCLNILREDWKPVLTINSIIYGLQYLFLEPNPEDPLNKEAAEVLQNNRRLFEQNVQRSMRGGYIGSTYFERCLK

Target: β-catenin (human (endogenous in MHCC-97L)) (UniProt P35222)
Test: co-IP; MHCC-97L cell lysate, protein G-agarose; IgG as negative control; which protein was precipitated is not given

## ubiquitin-conjugating enzyme E2M (UBE2M) (from UniProt P61081 1-183)
  binding: binds
